Taken from: PubChem BioAssay AID1259308 (NCATS, 2017)

- Assay: 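Knock-downs that increase output of a recombinant reporter protein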 (primary screen)
- System: human HEK293 embryonic kidney cells stably expressing firefly luciferase (HEK-CMV-Luc2-Hygro)
- Knock-down reagent: single siRNA against human genes, 0.8 pmol siRNA per well
- Time to read-out: 72 h
- Measurement: 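Reporter luminescence and viable-cell signal on separate replicate plates, given as percent of non-targeting control and median/MAD z-scores, plus per-cell luciferase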
- Direction: total luciferase, z-score and total luciferase, % of control: higher = more reporter protein produced
- Rule for the call: 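Active when the median/MAD z-score for overall luciferase is greater than 3; a gene was taken forward for validation with new siRNAs if at least two of its three siRNAs passed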
- Meaning of the calls: active = raised luciferase; inactive = no rise
The whole screen tested about 59,000 reagents; shown is a random part of them. About 1,510 of them (2.6%) were called active. 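Calls use total luciferase alone and ignore viability, so some active siRNAs may act by altering cell number.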 Reagents against one gene are numbered here. Further read-outs or replicates are left out here.

| gene | reagent | total luciferase, z-score | total luciferase, % of control | activity call |
| --- | --- | --- | --- | --- |
| MYPOP | 1 | 0.229 | 86.4 | inactive |
| MYPOP | 2 | -0.176 | 78.4 | inactive |
| MYPOP | 3 | -1.43 | 53.4 | inactive |
| GDPD2 | 1 | -1.1 | 60 | inactive |
| GDPD2 | 2 | -2.25 | 37.1 | inactive |
| GDPD2 | 3 | 0.404 | 89.9 | inactive |
| CSNK2A1 | 1 | -0.694 | 68.1 | inactive |
| CSNK2A1 | 2 | 0.615 | 94.1 | inactive |
| CSNK2A1 | 3 | 1.03 | 102 | inactive |
| UBE3D | 1 | 0.377 | 89.4 | inactive |
| UBE3D | 2 | -0.608 | 69.8 | inactive |
| UBE3D | 3 | -1.02 | 61.6 | inactive |
| MET | 1 | -0.518 | 71.6 | inactive |
| MET | 2 | 1.04 | 103 | inactive |
| MET | 3 | -0.0112 | 81.7 | inactive |
| MOSPD3 | 1 | 0.549 | 92.8 | inactive |
| MOSPD3 | 2 | 0.584 | 93.5 | inactive |
| MOSPD3 | 3 | -0.204 | 77.8 | inactive |
| DLEU7 | 1 | 2.64 | 134 | inactive |
| DLEU7 | 2 | -0.754 | 66.9 | inactive |
| DLEU7 | 3 | -0.497 | 72 | inactive |
| TRA2A | 1 | 0.6 | 93.8 | inactive |
| TRA2A | 2 | -0.314 | 75.6 | inactive |
| TRA2A | 3 | -0.527 | 71.4 | inactive |
